Source: patent US20190029238A1, “[…]” (William Paterson University Of New Jersey, priority 2015, published 2019)
“Also recorded” adds a separate entry of the source. At least one compound was matched to its structure with a doubt left.

Tested on: Dat-Cnr2 mice
Experiment: Cocaine stimulated wheel running activity (motor function test)
Type: in vivo, mouse
Conditions: Dat-Cnr2 homozygous mice versus heterozygous and wild type mice; FIG. 16, n=4-6

Compound: COC(=O)[C@H]1[C@@H](OC(=O)c2ccccc2)C[C@@H]2CC[C@H]1N2C [cocaine]
- cocaine stimulated wheel running activity (locomotor activity): more responsive to cocaine stimulation of motor activity than heterozygous and wild type mice; also recorded: higher locomotor activity than heterozygous and wild type mice
